Results: doi:10.1101/2020.12.25.417865
No constants are given. Whether binding was seen depends on the method and setting. Binding seen in cells or lysates may run through a third protein. These calls come from enrichment with a bait or labelling near it, and not all partners need be listed. Sequences can lack the tags named with a protein.

Biological target: T1, Drs2-GFP (S. cerevisiae) (UniProt P39524)
T1 sequence: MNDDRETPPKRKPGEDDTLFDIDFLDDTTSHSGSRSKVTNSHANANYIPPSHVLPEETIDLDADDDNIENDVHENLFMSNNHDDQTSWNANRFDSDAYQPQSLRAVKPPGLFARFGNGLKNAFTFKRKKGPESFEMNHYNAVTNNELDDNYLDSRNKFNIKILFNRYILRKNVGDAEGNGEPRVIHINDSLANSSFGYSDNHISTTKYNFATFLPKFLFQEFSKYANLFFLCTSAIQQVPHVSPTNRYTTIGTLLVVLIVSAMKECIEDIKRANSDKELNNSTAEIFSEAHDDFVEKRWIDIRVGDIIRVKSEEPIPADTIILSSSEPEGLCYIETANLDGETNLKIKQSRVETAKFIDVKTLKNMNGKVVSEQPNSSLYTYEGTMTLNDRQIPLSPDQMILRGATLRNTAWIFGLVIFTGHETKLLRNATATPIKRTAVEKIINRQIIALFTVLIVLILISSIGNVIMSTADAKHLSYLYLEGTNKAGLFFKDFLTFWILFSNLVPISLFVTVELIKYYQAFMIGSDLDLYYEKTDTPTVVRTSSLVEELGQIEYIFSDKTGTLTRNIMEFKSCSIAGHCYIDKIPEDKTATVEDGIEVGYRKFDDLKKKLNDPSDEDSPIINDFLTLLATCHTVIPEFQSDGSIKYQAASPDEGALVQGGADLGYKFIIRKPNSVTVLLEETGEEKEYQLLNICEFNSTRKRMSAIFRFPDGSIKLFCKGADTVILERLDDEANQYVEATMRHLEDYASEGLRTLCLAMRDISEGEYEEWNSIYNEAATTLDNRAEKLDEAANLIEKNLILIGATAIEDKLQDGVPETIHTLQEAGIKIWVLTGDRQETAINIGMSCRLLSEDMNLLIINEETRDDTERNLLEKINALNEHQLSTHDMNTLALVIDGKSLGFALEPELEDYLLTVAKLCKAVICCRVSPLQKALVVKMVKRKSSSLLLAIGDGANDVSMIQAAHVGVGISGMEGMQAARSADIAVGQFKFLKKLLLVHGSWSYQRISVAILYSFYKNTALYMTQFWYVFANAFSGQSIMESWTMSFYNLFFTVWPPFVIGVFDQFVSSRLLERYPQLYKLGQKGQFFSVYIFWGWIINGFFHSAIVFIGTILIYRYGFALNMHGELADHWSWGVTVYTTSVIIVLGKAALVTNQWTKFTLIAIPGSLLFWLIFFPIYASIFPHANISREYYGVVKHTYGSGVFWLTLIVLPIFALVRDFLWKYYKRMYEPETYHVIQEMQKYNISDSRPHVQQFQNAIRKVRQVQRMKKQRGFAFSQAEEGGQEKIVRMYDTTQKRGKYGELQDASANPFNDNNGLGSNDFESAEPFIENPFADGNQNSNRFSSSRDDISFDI
Assay: cross-linking + affinity purification with mass spectrometry

| Binder | binding |
| --- | --- |
| Trs85 (protein, UniProt P46944 1-698) MVFSYEHYMNLLFHLDNSKETVPPEIAKRIISNAIAPVITVTSTPLFDKHIQETYKVDSLYMLLRFFGGCVSDRDQANEAKVGQHEHEVCDASDSTDSIPKNKNLEVPNLSKKGSRSRSNSLFQRDSTQSQYIRFTRPLGDLIETRDANDMLFNYHSLEVFLDNYLKLVAANTDEMVPHNLLKKSIYHSFFSLAISSTNNLSPYETFNHPILSLIALDISNGEVYEDARDLLVNFKNLNHNTENFPIFMNTNEMLPVFLLCYNDDSQEEFEKCQALAKKLKKQLFVESILLALWKDSFIYDENSVIQLHQPVMSSLEEILFFLQAPTQTTLSLALINSIYDMLDYLVYDLMIPFMKRKVSFWEETILQPRKSLFNGAKFFKKFMNKNPVNGNHQHNSLTRDSQGNEYFASSSSEFLMRKLADWSMMLSDFKTAYSTYESLMDDLDAFPKYLASCIEWCAVSLLMGAQSIVTVKMIKNDINPLIERALATYENCSRIQRGKGKESNSLDVTEPVRSYETRCMILASELFLSLSNTWTSTPYAIQYLETILDECKLGPCSQIMVWERLSDCYNLRVDPRIKHRVGAMKKDAKDTEDLRGEHKYSTDHFTDEDILSEGLTRRRKAAFFRLIAAKKWAEQKQWRQVSWCLKDIESTYSEIKFLHGNGLILSKLKNQLNLKDVDSAPRPSEKNLTRTSVSFIG | binds |
| Trs65 (protein, UniProt P32893 1-560) MECFVPLRCDLDGSNIEQLRQSHLSRKFIIFDEQLNLWLWFQGNSQENKRFVLQNMIILINEAQVTRTSTIDDYFTQVENNENLWRLKNDCCSKILFKSNVVMNNGYNNQIKFVFEYKSVDANFNNQDSLQDPQAKYTLDKYSSEEILPSFEPVYSWSSAATKSSKNTNNHLEKNNRATHRVSSKNSEVHEADVSRNPNTFTLKLQYPIFSLLNMRLRNISLKSEHCILSSLDFQTSKASEQLTKKFIYPQEHNSFLKLNFQEISYKLIDGTSQIELDPICPLKVPLTAFSYDSISATFKLVLLPKSTQPHRVKITLAYELELHPNLKLPVRTSWETEVTLKRSMPISSTSSQYSSNNNNTNHSASFNGAANNVNSGGLANLRLGGVSSSRFSLGAASTTSLVNSKLSNVKFKFINSNIKVIKGEKFTMRLQIINSSSSPLDLVVYYNNTINPIPSANNVRNSNGINNCGMNNGTIPNSPLTLENQYQLHNKYRKIAEGIILLSNDYKIPVVPPRETYFADLRFIGIMSGYYGTLSGLKVLDLNTNELIEVGNGASVLIQ | binds |
| Trs120 (protein, UniProt Q04183 1-1289) MNILKHFPSYVGPSKIRTLVIPIGHWTRKEFNNAVQKLSEFNEIHLSDVTPIDSPIFTPQGFPHGKLFFDFLTIDHDDALELFLYDFEPFRKTFVIIGLVNDYSDPLTNLNFMKEKYPTLISPNLVYASSTPTKELEQTIDTMENVFASSPDMQKNIETIMCDIARNFLTALNSYYSSYKHVTLRSPGAIGGNAVLKTTLIRQNSYTSSSSSTPMSAVQSSVSSSSKAGSVTTASKRLSSFEMTTNSLKRSASLKLATTLSTSENRSQQKSLGRQMKILGNFQLLAGRYVDALNSFVDAITTLYKVRDYLWLGSALDGISICFLLLSYLGLSYQIPQIVSLICPVEKLNFESSSTGISPVDSNSKATASTTASSTPRNSISIAAMQSPRNSIMSLSAPALNIDVENINLPLLIKCISDKVLYYYDLSLMHNSEYAPQVVYCEFLLKTLTFMTSCYKSSEFSKDVLDNIVKNQHRALSDIPNSPMFPRFEVYFYSNKLFELQLKEMQVEAQIKIYSTMAEVYRLLGYKRKQLFVLRLLMVALLATPNKIAWHPDYRTLIDTIIELLNINESEAKINVDDPSQSTWLILQKKILQLCIKVSRKINDFEYVAKFSSILITKYTHLLNQSEQDALFKEYIQPSITNESITSYWDPFILREVVINRILDSDPTSNEIPLESDVSSLESLENRQKTQDINPQEVFNPFKRVQPTSFVSNNSTKVPILVFLVGDKAEFTCRVQNPFKFDFTINDIQLDEEISEFCEIDRKAVSYSGPYNVKAESIRSITLPLIIKKPTYKKIYEISCLKISILKLPLQKFDIINDSRRSNPVEEEAEYSKCIYGKLKIKILPEQPQLELLSTSKMTRNSWMMLDGTKTDFHITVRNKSLSCAINHIKIIPMNNIEQMLKPDYWKKMPPDDLYIMEKQLDWLSKSCVRIIKLPTVIKPNETITFDLELDNTAVPFNFTGFDLLIEYGMSATDESCIYLKKLSIPYEVTLRRTIEVPSMDIIPLNELFSSQVENVDWIEYVMSKIRAESNLHSRDFILLLLDFRNSWIDGIKLNVQFEDFTSNEYHVEASHTSRIIVPIKKIDYKKYNFENTPIPRIYPGRQFIQSGLNEEQTIEMRQKFWCREHIISKLKCNWKLTTDQSVTGSVDFNKFIEKFDHKMVYTIYPGRLFYGVQLLLDEPKVKVGEIINLKIITEPTSTCRRKQNSTVNFLDIVIFDSKTSKILPRSNRRILYNGSLTKPISTTKVSEINLEIIPIEKGRYEFSVCISKSNNQDGIIQFDSENVILSVI | binds |
| Trs130 (protein, UniProt Q03660 1-1102) MDKEIYCGSVPVSYFDPFDLFESLRPEFQQILPLDNIHWKAFDGTVRTVNRLPIELIPEGRGEADKSNDEQPFIRFLIVNCISIDQYRAKVRPLVRQWLPNLESVSSSTGEKMIYKPIILLYANSEVVDSNLFKSVSLMEKFGKDFPHVQTLEVRSVYRSPKERQEFWNQFSQKIKASVLSIFQKRLTHLQHSLANLQKGNNFEEQLLTREKLYELYVVFNILEDASLELQKIKKEILRRNMNMPDGKLQVPFESSSKSDESLGSIIIEGTLDKFQLHKYFFIRRLRLLKLEDQTLTAFVGAFQLIKNFIESISIEYRKSVRLLEFKHYFITSMLSYFEFENVSNPLLCEIKAELLMLKRDNWVQGVMATSGYRLMDKNYPNSDVKYKFDLLKETFVDETVFQENFLTLTKEILSLFNKCEGKRQRIVDILSIEIGLLYYQGKKYEEAVSLFLSCYEYYTQTNWNSIGLKILQVFIDSLSHCPKLDVLQIDGESVSASAVLTNAFLNILKLCKDNDSKEIWWKKFMDLQMKNNIHLMYPLDGLFEVTLNSKVHLARANVSAIEVNLKSYGFPEDISTKTMRLSLKNMGGDVIVFGASDFLLKKGENKLILECRDIMYGEFSLLSFEIIVEGITFVKEFPENQDEFIVVPEIYCKESTKVLVKQAHNLNLGEYALELKSVQSDALESLQVEVEVQKNIGNMKNLPVSFSMDEIQARKRYNTPFENVRLEYYLLDQITAFDLIIKTSFTKKNDQGTFGETKKVRIQCYLQLSVSVEDIFKKDIFFFKFLLNSSVREEPVILYSSELSAPDTRNDYNIRGDYIATTPALITFDGNESFINCYEITANNNFDSKDIFNLKVRYNTLKEQLDCFITDAVLIEGDVEWFILFEKWKTFWELEILKKLKYDYDAFKENRIIRLLKTSIDLNKTKSKIRNLCIEKAVLDKILICLNKVSRGIAVCNTDMDEYVRNLVPKQLTVPVQLPGFEQFFHVQFEQMETSHDALHDTIATIGNSLSYTVIVENLSGQWGQDVIDDGGYIFEILSSNEWLIHGQKRCAIKEKRKEFEVHLIPLKKGYLNFPRVEITNINGKSCRVDHSNAFESILIF | binds |
| Vps53 (protein, UniProt P47061 1-822) MLEGTVDYDPLEDITNILFSKESLNNIDELISITRSYKKQLQEDILKEENELKEHPKNSAEIEASLRKVFQDFKETQDVSASTELTISNLTEGISYLDIAKKNLTHSLTLFQNLKILTDSYIQCNELLSQGSFKKMVSPYKIMCSLAENTFISYKSLDEINYLLSSISRLKGDTLSKIKQNYNALFSGGNISEHDTALTMELREGACELLDCDTSTRAQMIDWCLDKLLFEMKEIFRVDDEAGSLENLSRRYIYFKKILNNFNSKFADYFLKDWEMAVRLTTTFYHITHKDLQTLLKREFKDKNPSIDLFMTALQSTLDFEKYIDVRFSKKIKEPKLSSCFEPYLTLWVSHQNQMMEKKFLSYMSEPKYPSNETESLVLPSSADLFRTYRSVLTQTLELIDNNANDSILTSLANFFSRWLQTYSQKILLPLLLPDNIEVQDKLEAAKYTVLLINTADYCATTIDQLEDKLSEFSGNREKLANSFTKTKNIYDDLLAKGTSFLLNRVIPLDLNFVWREFINNDWSNAAIEDYSRYMVTLKSVLKMPALTDASIKQQQEQPSTLAFILSQFNRDVYKWNFLDKVIDIITTNFVSNTIRLLQPVPPFSLAGSKRKFETRTVVNIGEQLLLDLELLKEIFHTLPESVSNDSDLRENTSYKRVKRHADNNIDQLLKFIKLLMAPLDSADDYYETYSKLTNNNPDSAVWSFVLALKGIPWDLALWKKLWSAYNLETDDTDEGSRPDSNRDLFIFKWDKVLLGQFENNLARMQDPNWSKFVRQDLKISPPVMKRIVSTPQIQQQKEEQKKQSLSVKDFVSHSRFFNRGT | binds |
| Cdc50 (protein, UniProt P25656 1-391) MVSLFKRGKAPPLTKEGPTSKKPPNTAFRQQRLKAWQPILSPQSVLPLLIFVACIFTPIGIGLIVSATKVQDLTIDYSHCDTKASTTAFEDIPKKYIKYHFKSKVENKPQWRLTENENGEQSCELQFEIPNDIKKSIFIYYKITNFYQNHRRYVQSFDTKQILGEPIKKDDLDTSCSPIRSREDKIIYPCGLIANSMFNDTFSQVLSGIDDTEDYNLTNKHISWSIDRHRFKTTKYNASDIVPPPNWMKKYPDGYTDENLPDIHTWEEFQVWMRTAAFPKFYKLTLKNESASLPKGKYQMNIELNYPISLFGGTKSFVLTTNGAIGGRNMSLGVLYLIVAGLCALFGIIFLVKLIFQPRAMGDHTYLNFDDEENEDYEDVHAENTTLREIL | binds |
